The values below come from PubChem BioAssay AID1961 (Sanford-Burnham Center for Chemical Genomics, 2009).

“And” between values parts separate entries of the source, which are not always exact repeats. Equal entries are not always repeated. The list shows a part of the results.

A short description of the test: selective activators of receptor GPR55 – imaging, U2OS cells, beta-arrestin-GFP redistribution, primary screen (AID 1961).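 Also: U2OS osteosarcoma cells stably expressing GPR55 and beta-arrestin-GFP.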 The settings on record: measured here: cytotoxicity, cells analyzed, at 10 µM.
Turning to `CCCCOc1ccc(C(=O)NCC2(N3CCCCC3)CCCCC2)cc1OC`, the cell count came to 380 cells.

On to `CP(=S)(Nn1cnnc1)Oc1ccccc1` (centres undefined), for which the cell count was 362 cells.

As for `CCOC(=O)Nc1cccc([As](=O)(O)O)c1`, the cell count amounted to 362 cells.

`COc1ccccc1OP(C)(=O)Nc1ccccc1` (centres undefined) showed a cell count of 273 cells.

With `O=P(Nc1ccccn1)(c1cccc2ccccc12)c1cccc2ccccc12`, the cell count amounted to 432 cells.

Molecule `Cc1cc(SC(NC=O)C(Cl)(Cl)Cl)ncn1` (centres undefined) returned a cell count of 280 cells.

As for `O=[N+]([O-])c1ccc(Nc2ccc(Oc3ccc([N+](=O)[O-])cc3[N+](=O)[O-])cc2)c([N+](=O)[O-])c1`, the cell count is 374 cells.

Regarding `CP(=O)(Nc1ccccc1Br)Oc1ccccc1` (centres undefined), the cell count came out at 354 cells.

`CP(=O)(Oc1ccccc1)OC(c1ccccc1)C(F)(F)F` (centres undefined) returned a cell count of 251 cells.

Consider `COP1(=S)c2c(C)nn(CCC#N)c2N=C(c2ccc(F)cc2)N1C` (centres undefined), for which the cell count was 396 cells.

`Cc1cccc(C)c1OP(C)(=O)Nc1ccc(SC(F)(F)F)cc1` (centres undefined) registered a cell count of 298 cells.

For `CP(=O)(Nc1ccc(SC(F)(F)F)cc1)Oc1ccc(Cl)cc1` (centres undefined), the cell count is 369 cells.

As for `O=C(Nc1ccncc1[N+](=O)[O-])c1ccc([N+](=O)[O-])cc1[N+](=O)[O-]`, the cell count came out at 378 cells.

Turning to `Cc1cc(C)cc(OP(C)(=O)Nc2ccc(SC(F)(F)F)cc2)c1` (centres undefined), the cell count amounted to 276 cells.

Turning to `O=C(COc1ccccc1)OC1CN2CCC1CC2` (centres undefined), the cell count turned out to be 286 cells.

Regarding `CP(=O)(NC(=O)Nc1ccccc1)Oc1ccccc1` (centres undefined), the cell count turned out to be 341 cells.

The molecule `CCc1ccc(OP(C)(=O)N2CCN(c3ccc([N+](=O)[O-])cc3)CC2)cc1` (centres undefined) yielded a cell count of 353 cells.

For `CCOP(C)(=S)SCC(=O)NC(C)C(=O)O` (centres undefined), the cell count is 299 cells.

`O=C(OC1CN2CCC1CC2)c1cccc([N+](=O)[O-])c1` (centres undefined) returned a cell count of 331 cells.

For the molecule `CCOC(=O)c1ccc(NP(C)(=O)Oc2ccc(OC)cc2)cc1` (centres undefined), the cell count came out at 297 cells.

`CCOC(=O)c1ccc(NC(=O)C(C)(CCl)SC)cc1` (centres undefined) yielded a cell count of 349 cells.

Take `CCC(C)N(CC(C)C)C(=S)SC(NC(C)=O)C(Cl)(Cl)Cl` (centres undefined): the cell count was determined as 343 cells.

Turning to `CP(=O)(Nc1ccccn1)Oc1ccc(Cl)cc1` (centres undefined), the cell count came to 360 cells.

The molecule `Cc1c2c(nc3ccccc13)SC(C(Cl)Cl)C2` (centres undefined) yielded a cell count of 296 cells.

`CCN(CC)CCCOC(=O)C(O)(c1ccccc1)c1ccccc1` had a cell count of 237 cells.

`Cc1cc(=O)[nH]c(N[N+](=O)[O-])n1` had a cell count of 185 cells.

On to `O=C(OC1CN2CCC1CC2)C12CC3CC(CC(C3)C1)C2` (centres undefined), for which the cell count turned out to be 383 cells.

Take `COc1cc(I)ccc1[As](=O)(O)O`: the cell count is 363 cells.

On to `COc1ccc2nc(NP(=O)(c3ccccc3)c3ccccc3)sc2c1`, for which the cell count amounted to 240 cells.

The molecule `COc1ccc(N/C(=N/P(=O)(N2CCOCC2)N2CCOCC2)N2CCOCC2)cc1` displayed a cell count of 263 cells.

The molecule `C[As](=O)(O)c1cccc(C(=O)O)c1` had a cell count of 385 cells.

In the case of `O=[As](O)(c1ccc(O)cc1)c1ccccc1O`, the cell count was 388 cells.

Consider `Cc1cccc(C)c1OP(C)(N)=O` (centres undefined), for which the cell count was 199 cells.

Take `Cc1ccc(OP(=O)(Nc2ccc([N+](=O)[O-])cn2)Oc2ccc(C)cc2)cc1`: the cell count is 355 cells.

Molecule `CC(C)(C)c1ccc(OP(C)(=O)Nc2ccc(SC(F)(F)F)cc2)cc1` (centres undefined) returned a cell count of 344 cells.

`O=[N+]([O-])c1ccc2c(c1)C=Nc1ccccc1O2`: the cell count came out at 243 cells.

The molecule `Cc1ccc2nc3c(c(C)c2c1)CC(C(Cl)Cl)S3` (centres undefined) showed a cell count of 356 cells.

`ClCCSc1nnc(-c2cccnc2)o1` had a cell count of 292 cells.

In turn, `CCOC(=O)c1ccc(NP(C)(=O)Oc2ccccc2)cc1` (centres undefined) displayed a cell count of 355 cells.

Molecule `CC(C)c1ccc(OP(=O)(Nc2ccccn2)Oc2ccccc2F)cc1` (centres undefined) gave a cell count of 343 cells.

On to `Cc1ccc(NP(C)(=O)Oc2ccccc2)c(C)c1` (centres undefined), for which the cell count came to 375 cells.

In turn, `COc1ccccc1OP(C)(=O)Nc1ccc(C)cc1` (centres undefined) returned a cell count of 312 cells.

On to `COc1ccc(OP(C)(=O)Nc2cccc(F)c2)cc1` (centres undefined), for which the cell count came out at 330 cells.

`O=[N+]([O-])c1cc([N+](=O)[O-])c(-c2ccn[nH]2)s1`: the cell count turned out to be 334 cells.

In turn, `COc1ccccc1OP(C)(=O)Nc1cc(Cl)ccc1C` (centres undefined) returned a cell count of 420 cells.

In turn, `CC(C)NC(=O)NP(=O)(Oc1ccccc1)Oc1ccccc1` displayed a cell count of 261 cells.

`CCN(CC)C(=S)SC(NC=O)C(Cl)(Cl)Cl` (centres undefined) showed a cell count of 444 cells.

`Cc1cc(C)cc(OP(C)(N)=O)c1` (centres undefined) yielded a cell count of 222 cells.

`O=P(Nc1nc2ccc(Cl)cc2s1)(c1ccccc1)c1ccccc1` had a cell count of 351 cells.

The molecule `Cc1cc(C)cc(OP(C)(=O)Nc2cccc(C(F)(F)F)c2)c1` (centres undefined) came in with a cell count of 393 cells.

`CC(=O)Nc1ccc([As](=O)(O)O)cc1` showed a cell count of 322 cells.

Molecule `O=C(O)c1ccccc1[As](=O)(O)O` showed a cell count of 380 cells.

`COc1ccc(OP(C)(=O)Nc2ccccc2Br)cc1` (centres undefined) yielded a cell count of 268 cells.

Turning to `COc1ccccc1OP(C)(=O)Nc1ccc(C)c(C)c1` (centres undefined), the cell count stood at 312 cells.

In turn, `Cc1ccc(NP(=O)(Oc2ccccc2F)Oc2ccccc2F)nc1` had a cell count of 285 cells.

Regarding `Cc1cc(SC(NC(=O)c2ccc(F)cc2)C(Cl)(Cl)Cl)ncn1` (centres undefined), the cell count turned out to be 287 cells.

With `CCOP(=O)(Nc1ccccc1)OCC`, the cell count was 348 cells and 317 cells.

The molecule `O=[N+]([O-])c1cc([N+](=O)[O-])c(CCN2CCOCC2)c([N+](=O)[O-])c1` displayed a cell count of 356 cells.

Molecule `Cc1nc2ccc3ccccc3c2o1.O=[N+]([O-])c1cc([N+](=O)[O-])c(O)c([N+](=O)[O-])c1` returned a cell count of 421 cells.
